Consider two molecules from PMC6316800.

These are yes or no findings as the source states them, for the method shown. Binding seen in cells or lysates may run through a third protein. A yes stands for co-enrichment or nearness to the bait. Other partners may have been found.

In this test the target is Influenza A virus non-structural protein 1 (NS1), strain A/Puerto Rico/8/1934(H1N1) (Influenza A virus A/Puerto Rico/8/1934(H1N1)), P03496. As to the kind of experiment: affinity purification with mass spectrometry. As to conditions: remark: other sources report otherwise.

B1: Interleukin enhancer-binding factor 3, Q12906 1-894 (protein)
chain: MRPMRIFVNDDRHVMAKHSSVYPTQEELEAVQNMVSHTERALKAVSDWIDEQEKGSSEQAESDNMDVPPEDDSKEGAGEQKTEHMTRTLRGVMRVGLVAKGLLLKGDLDLELVLLCKEKPTTALLDKVADNLAIQLAAVTEDKYEILQSVDDAAIVIKNTKEPPLSLTIHLTSPVVREEMEKVLAGETLSVNDPPDVLDRQKCLAALASLRHAKWFQARANGLKSCVIVIRVLRDLCTRVPTWGPLRGWPLELLCEKSIGTANRPMGAGEALRRVLECLASGIVMPDGSGIYDPCEKEATDAIGHLDRQQREDITQSAQHALRLAAFGQLHKVLGMDPLPSKMPKKPKNENPVDYTVQIPPSTTYAITPMKRPMEEDGEEKSPSKKKKKIQKKEEKAEPPQAMNALMRLNQLKPGLQYKLVSQTGPVHAPIFTMSVEVDGNSFEASGPSKKTAKLHVAVKVLQDMGLPTGAEGRDSSKGEDSAEETEAKPAVVAPAPVVEAVSTPSAAFPSDATAEQGPILTKHGKNPVMELNEKRRGLKYELISETGGSHDKRFVMEVEVDGQKFQGAGSNKKVAKAYAALAALEKLFPDTPLALDANKKKRAPVPVRGGPKFAAKPHNPGFGMGGPMHNEVPPPPNLRGRGRGGSIRGRGRGRGFGGANHGGYMNAGAGYGSYGYGGNSATAGYSQFYSNGGHSGNASGGGGGGGGGSSGYGSYYQGDNYNSPVPPKHAGKKQPHGGQQKPSYGSGYQSHQGQQQSYNQSPYSNYGPPQGKQKGYNHGQGSYSYSNSYNSPGGGGGSDYNYESKFNYSGSGGRSGGNSYGSGGASYNPGSHGGYGGGSGGGSSYQGKQGGYSQSNYNSPGSGQNYSGPPSSYQSSQGGYGRNADHSMNYQYR
Take B1: the binding result was “binds”.

B2: Interferon-induced, double-stranded RNA-activated protein kinase, P19525 1-551 (protein)
chain: MAGDLSAGFFMEELNTYRQKQGVVLKYQELPNSGPPHDRRFTFQVIIDGREFPEGEGRSKKEAKNAAAKLAVEILNKEKKAVSPLLLTTTNSSEGLSMGNYIGLINRIAQKKRLTVNYEQCASGVHGPEGFHYKCKMGQKEYSIGTGSTKQEAKQLAAKLAYLQILSEETSVKSDYLSSGSFATTCESQSNSLVTSTLASESSSEGDFSADTSEINSNSDSLNSSSLLMNGLRNNQRKAKRSLAPRFDLPDMKETKYTVDKRFGMDFKEIELIGSGGFGQVFKAKHRIDGKTYVIKRVKYNNEKAEREVKALAKLDHVNIVHYNGCWDGFDYDPETSDDSLESSDYDPENSKNSSRSKTKCLFIQMEFCDKGTLEQWIEKRRGEKLDKVLALELFEQITKGVDYIHSKKLIHRDLKPSNIFLVDTKQVKIGDFGLVTSLKNDGKRTRSKGTLRYMSPEQISSQDYGKEVDLYALGLILAELLHVCDTAFETSKFFTDLRDGIISDIFDKKEKTLLQKLLSKKPEDRPNTSEILRTLTVWKKSPEKNERHTC
In the case of B2, the binding result was “binds”.
